Assay results as given in US20050282190.
For some of these results: Where cells or extracts were used, other partners may take part. For some of these results: Tags and fusion partners may be left off the protein sequences shown. For some of these results: For at least one entry, the source does not settle the construct or the ends of the probe.

Sequences of proteins named here, by UniProt entry; tags and fusion partners are left off. Residues count along the entry.
UniProt P13393, 2-240: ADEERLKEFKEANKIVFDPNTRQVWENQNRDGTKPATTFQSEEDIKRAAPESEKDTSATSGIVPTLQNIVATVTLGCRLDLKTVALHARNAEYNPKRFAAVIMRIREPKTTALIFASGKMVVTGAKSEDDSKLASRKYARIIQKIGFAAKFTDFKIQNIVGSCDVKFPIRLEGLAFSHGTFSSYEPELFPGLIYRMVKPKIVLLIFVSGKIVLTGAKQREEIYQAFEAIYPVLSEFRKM

What was measured:
[1] = target: T1, TFIIB (UniProt P29055); experiment: binding assay; settings: method not stated; does not interfere with TFIIB-TBP interaction; purified recombinant protein
T1 sequence (looked up, limits assumed): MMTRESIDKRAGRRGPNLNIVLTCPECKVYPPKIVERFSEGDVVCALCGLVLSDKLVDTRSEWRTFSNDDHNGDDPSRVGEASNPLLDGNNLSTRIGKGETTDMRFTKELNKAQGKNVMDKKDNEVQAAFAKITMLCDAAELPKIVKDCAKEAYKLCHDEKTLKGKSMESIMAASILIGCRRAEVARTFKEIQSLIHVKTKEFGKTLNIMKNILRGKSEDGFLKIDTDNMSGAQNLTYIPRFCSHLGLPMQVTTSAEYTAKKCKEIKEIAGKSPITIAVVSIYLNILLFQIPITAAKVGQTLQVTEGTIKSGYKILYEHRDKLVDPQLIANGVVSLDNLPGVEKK

[2] = target: TBP (in yeast whole cell extract) (UniProt P13393); experiment: inhibition of the protein; settings: TBP around 20 nM in extract, protein in an extract
[3] = target: T2, B52 on polytene chromosomes (UniProt P26686); experiment: binding assay; settings: fluorescence with Texas Red streptavidin; B52-like pattern, heat shock loci labeled; protein in cells; protein details: fixed salivary gland squashes
T2 sequence (looked up, limits assumed): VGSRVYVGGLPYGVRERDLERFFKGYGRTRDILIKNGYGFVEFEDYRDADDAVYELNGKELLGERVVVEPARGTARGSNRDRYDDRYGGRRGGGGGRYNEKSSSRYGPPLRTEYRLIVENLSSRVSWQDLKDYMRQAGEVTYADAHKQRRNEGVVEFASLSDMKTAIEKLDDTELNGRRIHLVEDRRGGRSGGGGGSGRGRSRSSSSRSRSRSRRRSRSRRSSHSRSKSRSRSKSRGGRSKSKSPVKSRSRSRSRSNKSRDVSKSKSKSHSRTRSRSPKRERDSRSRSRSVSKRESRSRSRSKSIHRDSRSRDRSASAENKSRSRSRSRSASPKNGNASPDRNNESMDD

## GGGAGAAUUCAACUGCCAUCUAGGCAAAGAGCUAAUGUAGGAUGCUGGGGUAGUCCAGCCCUAGAAUAAGCGCUAGUACUACAAGCUUCUGGAGCUCGGU [AptB4]
[1]
  Kd: 7 nM

## GGGAGAAUUCAACUGCCAUCUAGGCAGCCAAGGUAAACAAUUCAGUUAGUGGAAUGAAACUGCCCAACACCAGAAGUACUACAAGCUUCUGGACUCGGU [AptTBP-101]
[2]; inhibits Pol II dependent transcription from AdML promoter as potently as AptTBP-12
  functional effect of the aptamer: active

## GGGAGAAUUCAACUGCCAUCUAGGCGCCGUGCCCGGUUUGGAUAGGCACAUAAGACGCCGACAAAGAAACCAACCAGUACUACAAGCUUCUGGACUCGGU [AptTBP-12]
[2]; inhibits Pol II dependent transcription from AdML promoter
  functional effect of the aptamer: active

## GGGAUCGCCGCGGCUGGUCAACCAGGCGACCGCCGCGGCCACAGCGGUGGGCUGGUCAACCAGGCGACCGCCCACCAGCGUUCCCGGAUCCGUGACCGACCAGAAUCAUGCAAGUGCGUAAGAUAGUCGCGGGUCGGGUCAUACUCCCGGCCAGAAUCAUGCAAGUGCGUAAGAUAGUCGCGGGCCGGGAGGCGGAUUC [aptabody B-S]
[3]
  binding result: binds
